# Results deposited as PubChem BioAssay AID1259254 (NCATS, 2017).
# Aim: 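Genome-wide screen for genes that prevent DNA re-replication in cancer cells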 (primary screen)
# Cells: human HCT116 colorectal cancer cells
# Knock-down reagent: single siRNA against human genes
# Timing: 3 days
# Measured: 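Nuclei stained with Hoechst and imaged; cell-cycle phase assigned by DNA content; G2 share scaled per plate, non-targeting siRNA 0%, GMNN siRNA 100%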
# Reading the numbers: G2 robust z-score: higher = more G2 cells, more excess DNA replication
# Active means: 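An siRNA counts as active if its G2 robust z-score lies at least 5 MADs above the screen median; here such calls match roughly 38% of GMNN control or more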
# In all, the deposit lists about 59,000 reagents; shown is an unselected part. In the full data, about 1,550 (2.6%) were called active. 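G2 share is only a proxy for re-replication; each gene was hit by three separate siRNAs, and active genes were retested.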 The numbers tell different reagents against one gene apart. Not all columns of the deposit are shown. Not given: the amount of reagent.
Gene,reagent,G2 robust z-score,Outcome
GNRH1 (gonadotropin releasing hormone 1),1,-0.62,inactive
GNRH1 (gonadotropin releasing hormone 1),2,0.633,inactive
GNRH1 (gonadotropin releasing hormone 1),3,0.112,inactive
LRRCC1 (leucine rich repeat and coiled-coil centrosomal protein 1),1,-0.698,inactive
LRRCC1 (leucine rich repeat and coiled-coil centrosomal protein 1),2,0.218,inactive
LRRCC1 (leucine rich repeat and coiled-coil centrosomal protein 1),3,-0.122,inactive
SGCE (sarcoglycan epsilon),1,-0.999,inactive
SGCE (sarcoglycan epsilon),2,0.148,inactive
SGCE (sarcoglycan epsilon),3,-0.102,inactive
KIAA1958,1,0.0272,inactive
KIAA1958,2,5.07,active
KIAA1958,3,0.325,inactive
FER (FER tyrosine kinase),1,0.928,inactive
FER (FER tyrosine kinase),2,-0.929,inactive
FER (FER tyrosine kinase),3,-0.61,inactive
MBLAC1 (metallo-beta-lactamase domain containing 1),1,0.217,inactive
MBLAC1 (metallo-beta-lactamase domain containing 1),2,2.44,inactive
MBLAC1 (metallo-beta-lactamase domain containing 1),3,0.565,inactive
KITLG (KIT ligand),1,-0.484,inactive
KITLG (KIT ligand),2,0.63,inactive
KITLG (KIT ligand),3,-1.39,inactive
CBX3P2 (CBX3 pseudogene 2),1,-0.0485,inactive
CBX3P2 (CBX3 pseudogene 2),2,3.18,inactive
CBX3P2 (CBX3 pseudogene 2),3,2.33,inactive
GLUD1 (glutamate dehydrogenase 1),1,-0.15,inactive
GLUD1 (glutamate dehydrogenase 1),2,-0.305,inactive
GLUD1 (glutamate dehydrogenase 1),3,-0.0602,inactive
TCEAL6 (transcription elongation factor A like 6),1,1.85,inactive
TCEAL6 (transcription elongation factor A like 6),2,-0.0677,inactive
TCEAL6 (transcription elongation factor A like 6),3,-0.0986,inactive

Part of the list above, set out differently:
| Gene | reagent | G2 robust z-score | Outcome |
| --- | --- | --- | --- |
| GNRH1 (gonadotropin releasing hormone 1) | 2 | 0.633 | inactive |
| GNRH1 (gonadotropin releasing hormone 1) | 3 | 0.112 | inactive |
| LRRCC1 (leucine rich repeat and coiled-coil centrosomal protein 1) | 1 | -0.698 | inactive |
| LRRCC1 (leucine rich repeat and coiled-coil centrosomal protein 1) | 2 | 0.218 | inactive |
| LRRCC1 (leucine rich repeat and coiled-coil centrosomal protein 1) | 3 | -0.122 | inactive |
| SGCE (sarcoglycan epsilon) | 1 | -0.999 | inactive |

Next records follow:
Gene,reagent,G2 robust z-score,Outcome
RHO (rhodopsin),1,6.11,active
RHO (rhodopsin),2,-0.914,inactive
RHO (rhodopsin),3,-0.574,inactive
"RAB4A (RAB4A, member RAS oncogene family)",1,4.55,inactive
"RAB4A (RAB4A, member RAS oncogene family)",2,-0.057,inactive
"RAB4A (RAB4A, member RAS oncogene family)",3,-0.692,inactive
DMAC2 (distal membrane arm assembly component 2),1,-0.521,inactive
DMAC2 (distal membrane arm assembly component 2),2,2.25,inactive
DMAC2 (distal membrane arm assembly component 2),3,1.62,inactive
SUMO2 (small ubiquitin like modifier 2),1,1.89,inactive
SUMO2 (small ubiquitin like modifier 2),2,1.28,inactive
SUMO2 (small ubiquitin like modifier 2),3,1.72,inactive
BORCS6 (BLOC-1 related complex subunit 6),1,-0.619,inactive
BORCS6 (BLOC-1 related complex subunit 6),2,0.455,inactive
BORCS6 (BLOC-1 related complex subunit 6),3,-0.218,inactive
WRN (WRN RecQ like helicase),1,4.95,inactive
WRN (WRN RecQ like helicase),2,7.17,active
WRN (WRN RecQ like helicase),3,9.29,active
ZFP14 (ZFP14 zinc finger protein),1,0.481,inactive
ZFP14 (ZFP14 zinc finger protein),2,-1.19,inactive
ZFP14 (ZFP14 zinc finger protein),3,0.188,inactive
LYZ (lysozyme),1,-1.01,inactive
LYZ (lysozyme),2,-0.315,inactive
LYZ (lysozyme),3,0.246,inactive
ACVRL1 (activin A receptor like type 1),1,3.79,inactive
ACVRL1 (activin A receptor like type 1),2,2.04,inactive
ACVRL1 (activin A receptor like type 1),3,-0.786,inactive
MVP (major vault protein),1,4.17,inactive
MVP (major vault protein),2,-0.126,inactive
MVP (major vault protein),3,-1.15,inactive
HLCS (holocarboxylase synthetase),1,1.86,inactive
HLCS (holocarboxylase synthetase),2,16.8,active
HLCS (holocarboxylase synthetase),3,1.2,inactive
ERN2 (endoplasmic reticulum to nucleus signaling 2),1,0.209,inactive
ERN2 (endoplasmic reticulum to nucleus signaling 2),2,0.334,inactive
ERN2 (endoplasmic reticulum to nucleus signaling 2),3,-0.202,inactive
STK33 (serine/threonine kinase 33),1,-0.138,inactive
STK33 (serine/threonine kinase 33),2,2.67,inactive
STK33 (serine/threonine kinase 33),3,-0.422,inactive
